Experimental data as given in US20160046678A1 (ZYNGENIA, published 2016).
These are yes or no findings as the source states them, for the method shown. Some results given as binding are weak or reduced against the parent protein; the word gives no strength.

B1: EGA780 (peptide)
peptide: YQEHCWRFPNDWICSLLP
B2: EGA781 (peptide)
peptide: YAEHCRLFPGDWICTLST
B3: EGA782 (peptide)
peptide: YAEHCSMFPSDWICSLMT
B4: EGA783 (peptide)
peptide: YAEHCWHFPTDWICTLRS
B5: EGA784 (peptide)
peptide: YAEHCGLFPGDWICTLKN
B6: EGA785 (peptide)
peptide: YAEHCNMFPTDWICTLME
B7: EGA786 (peptide)
peptide: YAEHCSFFPADWICTLIP
B8: EGA788 (peptide)
peptide: YAEHCWMFPTDWICSLNR
B9: EGA789 (peptide)
peptide: YPEHCWQFPGDWICTLLT
B10: EGA790 (peptide)
peptide: YADHCRLFPTDWICTLVT
B11: EGA791 (peptide)
peptide: YAEHCRLFPSDWICSLVT
B12: EGA792 (peptide)
peptide: YAEHCRQFPADWICTLMT
B13: EGA793 (peptide)
peptide: YSEHCWMFPSDWICTLME
B14: EGA795 (peptide)
peptide: YAEHCSQFPTDWICTLLT
B15: EGA796 (peptide)
peptide: LAEHCYLFPCDWICSLLT
B16: EGA798 (peptide)
peptide: YAEHCWQFPADWICTLLP
B17: EGA799 (peptide)
peptide: YREHCSLFPNDWICTLMP
B18: EGA801 (peptide)
peptide: YAEHCSLFPTDWICSLMP
B19: EGA802 (peptide)
peptide: YEEHCWLFPSDWICSLRQ
B20: EGA804 (peptide)
peptide: LPEPCWWAPWGRECLLLP
B21: EGA805 (peptide)
peptide: LPQGCWWAVWGKECHLLP
B22: EGA806 (peptide)
peptide: LYDTCYWTTWGKECLMPR
B23: EGA807 (peptide)
peptide: LPDGCTWMVWGRECFLLP
B24: EGA808 (peptide)
peptide: LPGGCWWAVWGRECQLLP
B25: EGA809 (peptide)
peptide: HPDDCWWALWGRECLLLP
B26: EGA810 (peptide)
peptide: KCNFNPWKAACG
B27: EGA811 (peptide)
peptide: LPEGCWWALWGRECLLLP
B28: EGA812 (peptide)
peptide: LLDACWWATWGKECIWRN

Each binder was assayed against EGFR (UniProt P00533) (assay: peptide screen, Example 48).
In the case of B1, the binding is reported as “binds”. B2 was tested, and the binding was “binds”. B3 was tested, and the binding was “binds”. With B4 the binding was “binds”. For B5, the binding was “binds”. For B6, the binding was “binds”. In the case of B7, the binding is reported as “binds”. B8 was tested, and the binding was “binds”. B9 was tested, and the binding was “binds”. B10 was tested, and the binding was “binds”. B11 was tested, and the binding was “binds”. For B12, the binding was “binds”. In the case of B13, the binding is reported as “binds”. In the case of B14, the binding is reported as “binds”. For B15, the binding was “binds”. With B16 the binding was “binds”. With B17 the binding was “binds”. With B18 the binding was “binds”. B19 was tested, and the binding was “binds”. With B20 the binding was “binds”. For B21, the binding was “binds”. With B22 the binding was “binds”. B23 was tested, and the binding was “binds”. For B24, the binding was “binds”. With B25 the binding was “binds”. With B26 the binding was “binds”. For B27, the binding was “binds”. For B28, the binding was “binds”.
